Sequences of proteins named here, by UniProt entry; tags and fusion partners are left off. Residues count along the entry.
UniProt Q16595, residues 42-210: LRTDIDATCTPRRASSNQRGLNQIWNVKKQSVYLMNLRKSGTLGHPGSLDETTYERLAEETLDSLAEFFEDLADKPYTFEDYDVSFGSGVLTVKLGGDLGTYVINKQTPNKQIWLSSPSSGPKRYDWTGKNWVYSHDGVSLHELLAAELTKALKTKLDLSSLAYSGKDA

According to PMC11092868:

Target: frataxin FXN^42-210, endogenous in human lymphoblasts (human (endogenous in lymphoblasts)) (UniProt Q16595)
Assay: affinity purification with mass spectrometry; rabbit anti-FXN antibody on Protein A magnetic beads; pooled high molecular weight Superdex 75 fractions of human lymphoblast lysates; bound fraction analysed by LC-MS/MS

B1: Peroxiredoxin 3, endogenous human (protein, UniProt P30048 62-256)
chain: APAVTQHAPYFKGTAVVNGEFKDLSLDDFKGKYLVLFFYPLDFTFVCPTEIVAFSDKANEFHDVNCEVVAVSVDSHFSHLAWINTPRKNGGLGHMNIALLSDLTKQISRDYGVLLEGSGLALRGLFIIDPNGVIKHLSVNDLPVGRSVEETLRLVKAFQYVETHGEVCPANWTPDSPTIKPSPAASKEYFQKVNQ
- binding: binds

No constants are given. Whether binding was seen depends on the method and setting. Binding seen in cells or lysates may run through a third protein. These calls come from enrichment with a bait or labelling near it, and not all partners need be listed.
